No constants are given. Whether binding was seen depends on the method and setting. Some binding calls cover weakened binding; strength is not graded here.
Legend:
HER2 on SKBR3 cells [1] = target: HER2 on SKBR3 cells (UniProt P04626); assay: FACS
HER2 on SKBR3 cells [2] = target: HER2 on SKBR3 cells (UniProt P04626); assay: FACS, Alexa 647 labeled antibody on SKBR3 cells

binding (HER2 on SKBR3 cells [1]): binds
binding (HER2 on SKBR3 cells [2]): binds
B1: CDR-grafted meditope-enabled trastuzumab (trastuzumab-like CDRs on a cetuximab-like framework) (antibody, V domains shown)
VH: QVQLKQSGPGLVQPSQSLSITCTVSGFNIKDTYIHWVRQSPGKGLEWLGRIYPTNGYTRYNTPFTSRLSINADNSKNQVFFKMNSLQSNDTAIYYCARWGGDGFYAMDYWGQGTLVTVSS
VL: DILLTQSPVILSVSPGERVSFSCRASQDINTAIAWYQQRTNGSPRLLIYSASFLYSGVPSRFSGSRSGTDFTLSINSVESEDIADYYCQQHYTTPPTFGAGTKVEIKR

From patent publication US20140113348A1
